In paper PMC9828152 one finds binding data, which are given here for four substances.

The chains behind the UniProt entries cited, without tags or fusion partners. Where a name states a change or a piece, a line headed by the entry shows the natural chain unless it says otherwise.
UniProt P08047: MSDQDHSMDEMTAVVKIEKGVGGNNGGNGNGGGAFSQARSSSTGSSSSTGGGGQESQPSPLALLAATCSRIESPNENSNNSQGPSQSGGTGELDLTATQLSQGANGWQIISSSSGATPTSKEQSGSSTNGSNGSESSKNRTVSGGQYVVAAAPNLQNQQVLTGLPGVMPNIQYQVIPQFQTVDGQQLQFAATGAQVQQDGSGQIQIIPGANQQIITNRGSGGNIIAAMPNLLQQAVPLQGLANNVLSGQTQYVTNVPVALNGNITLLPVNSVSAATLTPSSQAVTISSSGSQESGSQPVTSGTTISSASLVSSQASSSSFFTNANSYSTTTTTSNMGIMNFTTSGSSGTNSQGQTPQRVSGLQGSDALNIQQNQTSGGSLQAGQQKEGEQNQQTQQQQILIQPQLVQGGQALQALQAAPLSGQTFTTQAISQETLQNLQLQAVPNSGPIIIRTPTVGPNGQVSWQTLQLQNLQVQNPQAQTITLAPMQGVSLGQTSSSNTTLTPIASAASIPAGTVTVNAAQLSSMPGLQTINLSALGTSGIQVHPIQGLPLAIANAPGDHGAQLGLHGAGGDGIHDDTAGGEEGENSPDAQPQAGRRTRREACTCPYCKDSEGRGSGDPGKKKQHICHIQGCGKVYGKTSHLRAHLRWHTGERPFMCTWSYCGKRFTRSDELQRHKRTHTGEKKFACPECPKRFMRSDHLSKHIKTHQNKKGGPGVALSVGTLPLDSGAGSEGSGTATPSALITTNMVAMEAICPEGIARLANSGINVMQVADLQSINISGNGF

Numbering of substitutions follows the chain as printed. No constants are given. Whether binding was seen depends on the method and setting. In cells and extracts the contact can be indirect. Some results given as binding are weak or reduced against the parent protein; the word gives no strength. For some of these results: Where a sequence is shown, tags or fusion partners need not be part of it.

For assay [1], the target named is T1, Ets1 WT-Flag (human) (UniProt P14921).
T1 sequence: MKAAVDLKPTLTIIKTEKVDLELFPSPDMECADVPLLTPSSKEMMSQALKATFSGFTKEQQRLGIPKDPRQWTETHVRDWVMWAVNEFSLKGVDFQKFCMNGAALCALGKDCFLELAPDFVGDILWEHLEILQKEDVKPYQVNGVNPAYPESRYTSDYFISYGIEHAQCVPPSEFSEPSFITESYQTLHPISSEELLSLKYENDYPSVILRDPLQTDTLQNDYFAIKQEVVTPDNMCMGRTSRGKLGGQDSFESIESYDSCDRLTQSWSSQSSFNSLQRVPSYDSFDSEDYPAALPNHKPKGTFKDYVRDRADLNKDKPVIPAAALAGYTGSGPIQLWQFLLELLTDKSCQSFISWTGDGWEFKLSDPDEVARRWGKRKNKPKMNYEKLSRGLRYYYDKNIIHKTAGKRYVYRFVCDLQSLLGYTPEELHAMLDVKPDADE
The assay can be described thus: co-IP; cells (SW480; for the two fragments also HEK293T) co-transfected with tagged Sp1 and Ets1 constructs, 24 h; anti-Flag magnetic beads; blot with anti-HA, anti-GST, anti-Flag or anti-Ets1.

Assay [2] has as its target T2, Ets1(244-331)-Flag (human) (UniProt P14921).
T2 sequence: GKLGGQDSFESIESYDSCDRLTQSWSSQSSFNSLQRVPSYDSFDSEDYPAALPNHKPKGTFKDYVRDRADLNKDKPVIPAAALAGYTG
The assay is described as above.

Another assay deals with T3, Ets1-Vc155 (human) (UniProt P14921).
T3 sequence: T1 sequence
In words: split reporter; BiFC; Vc155 and Vn173 fusions co-transfected into SW480 cells, 24 h, fluorescence microscopy.

The target of a further assay is T4, Ets1-Y283F-Vc155 (human) (UniProt P14921).
T4 sequence: T1 sequence with Y283F
Described as above.

A further assay deals with T5, Ets1-Y283E-Vc155 (human) (UniProt P14921).
T5 sequence: T1 sequence with Y283E
The description is as above.

Assay [3] has as its target T6, human E26 transcription factor 1 (Ets1), endogenous (human (endogenous in SW480, WM793, HEK293T)) (UniProt P14921).
T6 sequence: T1 sequence
In words: co-IP; endogenous proteins; lysates of SW480, WM793 and HEK293T cells immunoprecipitated with anti-Ets1 antibody or control IgG, blotted with anti-Ets1 or anti-Sp1; SW480 lysates also with DNase I (1 unit/uL), or cells treated with dasatinib or PP2 (1, 5 or 10 uM) for 2.5 h.

The target in assay [4] is T6, human E26 transcription factor 1 (Ets1), endogenous (human (endogenous in SW480, WM793, HEK293T)). In words: co-IP; SW480 cells cotransfected with Sp1(626-708) and Ets1(244-331) expression vectors; immunoprecipitated with anti-Flag and anti-Ets1 antibodies; blot with anti-Flag, Ets1, Sp1 and P-Tyr antibodies.
Assay [5] deals with T7, Ets1 Tyr283F-Flag (human) (UniProt P14921).
T7 sequence: T1 sequence with Y283F
In words: co-IP; anti-Flag immunoprecipitates of cells producing Flag-tagged Ets1 variants, blotted for Sp1; with or without 1 uM PP2 for 2.5 h before harvest.

Assay [6] deals with T8, Ets1 Tyr283E-Flag (human) (UniProt P14921).
T8 sequence: T1 sequence with Y283E
The description is as above.

Assay [7] addresses T1, Ets1 WT-Flag (human). Described as above.

On to “Sp1 (partner of the Flag-tagged Ets1 variants in Figure 3C) (from UniProt P08047 1-785)”, for which the binding result with Ets1 WT-Flag (human) [1] is recorded as “binds”.
“Sp1(626-708)-HA (from UniProt P08047 626-708) (domain or fragment)”: the binding entry in assay [2] is given as “binds”.
Take Sp1-Vn173 (from UniProt P08047 1-785): the binding entry in the assay with Ets1-Vc155 (human), with Ets1-Y283F-Vc155 (human) and with Ets1-Y283E-Vc155 (human) was “binds” each time.
Take “specific protein 1 (Sp1), endogenous (from UniProt P08047 1-785)”: the binding entry (in assay [3]; in assay [4]; in assay [5]; in [6]; with Ets1 WT-Flag (human) [7]) was “binds” in each case.
